# According to PubChem BioAssay AID1487 (National Center for Advancing Translational Sciences (NCATS), 2009):
# “And” between values parts separate entries of the source, which are not always exact repeats. Equal values may be shown once. The list shows a part of the results. These are further read-outs of the screen, such as a control signal, another cell line or another target. No call is given for them. Most of these compounds were active or inconclusive in the main read-out, so they are no random draw. Words in brackets tell the shape of the fitted curve; partial curves, single points and poor fits give uncertain potencies.
# Test: qHTS Assay for Modulators of Lamin A Splicing
# Conditions: HeLa LMNA splicing GFP/RFP minigene ratio, 48 h
# How it was run: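 S3 HeLa cells stably expressing lamin A-EGFP splicing minigene plus DsRed2, 600 cells/well, 48 h compound exposure at 37C. Laser-scanning cytometry; analysed as GFP (500-530 nm)/RFP (575-640 nm) total intensity ratio; 0.5% DMSO vehicle.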
# [1] = measured here: GFP splicing reporter channel
# [2] = measured here: RFP viability control channel
SMILES,AC50 [1],AC50 [2]
O=[N+]([O-])c1ccc(NC(=S)N2CCOCC2)cc1,"12.6 µM [rising, single point]","14.1 µM [rising, single point]"
CCOC(=O)c1nnn(CC(=O)N2N=C(c3cc(C)ccc3C)CC2c2ccc(OC)cc2)c1C(=O)OCC (configuration not stated),"14.1 µM [rising, single point]","12.6 µM [rising, partial curve]"
COc1cccc(C(=O)Nc2ccc(S(=O)(=O)N(Cc3ccccc3)c3ccccc3)cc2)c1,,"0.01 µM [falling, full curve, poor fit]"
O=C(CSc1nnc2scc(-c3ccccc3)n12)Nc1nsc(-c2ccccc2)n1,,"14.1 µM [rising, partial curve, poor fit]"
COc1ccc(C/C(N)=N/OC(=O)C(c2ccccc2)c2ccccc2)cc1OC,"1.58 µM [falling, single point]","0.708 µM [falling, full curve, poor fit]"
O=C1c2ccccc2NC(c2ccccn2)N1NS(=O)(=O)c1ccccc1 (configuration not stated),,"2.82 µM [rising, partial curve, poor fit]"
Cc1ccc(NC(=O)c2sc3ncnc(N(C)C4CCCCC4)c3c2C)cc1,,"6.31 µM [falling, full curve]"
Cc1cc(C)c(S(=O)(=O)NCCc2csc3nc(-c4ccc(Cl)cc4)nn23)c(C)c1,"20 µM [falling, partial curve, poor fit]","22.4 µM [falling, single point]"
Cc1ccccc1Cn1c(CN2CCC(C(=O)NCCN(C)C)CC2)cc2ccccc21,"35.5 µM [falling, single point]","35.5 µM [falling, single point]"
N=C1C(c2nc3ccccc3s2)=C(O)CN1NC(=O)c1c[nH]c2ccccc12,"0.00355 µM [falling, full curve, poor fit]","0.00355 µM [falling, full curve, poor fit]"
O=C(COC(=O)c1c2c(nc3ccccc13)CCCC2)Nc1ccc2c(c1)OCO2,,"11.2 µM [rising, partial curve]"
CCN(CCCNC(=O)c1ccc(N2CCCC2=O)cc1)c1cccc(C)c1,"0.447 µM [rising, full curve, poor fit]","12.6 µM [rising, partial curve]"
COc1ccc(CNC(=O)COC(=O)/C=C/c2ccc(Cl)cc2)cc1,"0.00282 µM [falling, full curve]",
COc1ccc(-c2cc(C(=O)N3CCN(c4ccccn4)CC3)c3ccccc3n2)cc1,"0.562 µM [falling, full curve]","0.562 µM [falling, full curve]"
Cc1ccccc1NC(=O)CN1C(=O)C(C)(C)c2ccccc21,"35.5 µM [falling, partial curve, poor fit]",
C=CCN(c1ccccc1OC)S(=O)(=O)c1ccc(Cl)c(C(=O)Nc2ccc(N3CCOCC3)cc2)c1,,"14.1 µM [rising, single point]"
CCOC(=O)c1ccccc1NC(=O)CSc1nnc(COc2ccccc2)n1CC,,"7.94 µM [rising, partial curve, poor fit]"
O=C(Nc1cccc(C(F)(F)F)c1)Nc1ccc(N2CCCC2)c(S(=O)(=O)Nc2ccccc2Cl)c1,"28.2 µM [falling, single point]","5.62 µM [rising, single point]"
O=C1NCCCc2c1oc1cc(Br)c(O)c(Br)c21,"11.2 µM [rising, partial curve, poor fit]","12.6 µM [rising, single point]"
Cc1nc2cc(NC(=O)N(C)c3ccc4ccccc4c3)ccc2o1,,"17.8 µM [rising, single point]"
CCc1c(C)nc2cc(-c3ccc(OC)c(OC)c3)nn2c1N1CCCC1,,"14.1 µM [rising, partial curve, poor fit]"
CCN(C(=O)CSc1cc(-c2ccccc2)c2ccc(OC)cc2n1)C1CCS(=O)(=O)C1 (configuration not stated),,"35.5 µM [rising, single point]"
Cc1onc(-c2ccccc2Cl)c1C(=O)N(Cc1nc(-c2ccccc2)no1)C1CCCCC1,,"10 µM [rising, partial curve, poor fit]"
Cc1ccc(C)c(N2CCN(S(=O)(=O)c3ccc4c(c3)oc(=O)n4C)CC2)c1,"1.78 µM [rising, full curve, poor fit]",
COc1ccccc1NC(=O)N1CCC(c2nc3cc(C)c(C)cc3[nH]2)CC1,,"1.78 µM [rising, full curve]"
O=S(=O)(NCc1ccncc1)c1ccccc1,"7.94 µM [rising, partial curve, poor fit]","8.91 µM [rising, partial curve]"
COc1cc(S(=O)(=O)NCc2ccncc2)c(OC)cc1Cl,,"11.2 µM [rising, partial curve, poor fit]"

# Rewritten bar-delimited: entries from further up.
SMILES | AC50 [1] | AC50 [2]
CCOC(=O)c1ccccc1NC(=O)CSc1nnc(COc2ccccc2)n1CC |  | 7.94 µM [rising, partial curve, poor fit]
O=C(Nc1cccc(C(F)(F)F)c1)Nc1ccc(N2CCCC2)c(S(=O)(=O)Nc2ccccc2Cl)c1 | 28.2 µM [falling, single point] | 5.62 µM [rising, single point]
O=C1NCCCc2c1oc1cc(Br)c(O)c(Br)c21 | 11.2 µM [rising, partial curve, poor fit] | 12.6 µM [rising, single point]
Cc1nc2cc(NC(=O)N(C)c3ccc4ccccc4c3)ccc2o1 |  | 17.8 µM [rising, single point]

# The results go on.

SMILES,AC50 [1],AC50 [2]
Cc1ccc(-c2csc(NC(=O)c3cnccn3)n2)cc1C,"5.62 µM [falling, single point]",
O=C(O)c1cc(-c2ccc(C(F)(F)F)cc2)nc2n[nH]c(-c3ccccc3)c12,"2 µM [rising, partial curve, poor fit]",
CCN1C(=O)N[C@@H](c2ccccc2)C1=O,,"0.178 µM [falling, partial curve, poor fit]"
COc1ccc(C)cc1-n1c(SCC(=O)Nc2cc(C)on2)nc2sc(C)c(C)c2c1=O,,"0.0631 µM [rising, full curve, poor fit]"
COc1ccccc1C(=O)Nc1nnc(S(=O)(=O)N(C)c2ccc(Cl)cc2)s1,,"0.00891 µM [rising, full curve, poor fit]"
O=c1cnc2cncnc2n1Cc1ccccc1Cl,"4.47 µM [falling, full curve]","3.98 µM [falling, full curve]"
CC(COc1ccc(/C=C/c2ccccc2)cc1)[N+](C)(C)C (configuration not stated),"0.000794 µM [falling, full curve, poor fit]","31.6 µM [falling, single point]"
CCN1C(=O)/C(=C/c2ccc(C)o2)N(C)C1=S,,"14.1 µM [rising, single point]"
NC(=O)CN(c1ccc(Cl)cc1)S(=O)(=O)c1ccccc1,,"1.26 µM [falling, full curve, poor fit]"
CCc1ccc(-c2csc(NC(=O)c3cccnc3)n2)cc1,"5.62 µM [rising, single point]","3.98 µM [rising, full curve]"
Cc1ccc(C(=O)NCCn2ccc3ccccc32)cc1[N+](=O)[O-],,"0.00501 µM [falling, full curve, poor fit]"
Cc1onc(-c2ccccc2Cl)c1C(=O)Nc1ccccc1,,"35.5 µM [rising, single point]"
Cc1nn2c(=O)cc(COC(=O)CNC(=O)c3ccc(F)cc3)nc2s1,,"1.41 µM [falling, partial curve]"
O=C(Nc1ccn(Cc2ccccc2)n1)c1cccc(Cn2cc([N+](=O)[O-])cn2)c1,,"31.6 µM [rising, single point]"
CCOC(=O)N1CCC(NC(=O)C2CCCN(S(=O)(=O)c3cccc4nsnc34)C2)CC1 (configuration not stated),"0.112 µM [rising, partial curve, poor fit]",
Cc1ccc(OCC(O)Cn2c(=N)n(CCN3CCCCC3)c3ccccc32)cc1 (configuration not stated),,"31.6 µM [rising, single point]"
CC1(C)CC(=O)C2=C(C1)Oc1ncn(Cc3ccco3)c(=N)c1C2c1ccccc1 (configuration not stated),,"15.8 µM [rising, partial curve]"
COc1ccccc1/C=C/C=N/NC(=O)CN1CCN(S(=O)(=O)c2ccc(C)cc2)CC1,,"12.6 µM [rising, single point]"
N=c1n(CCN2CCCCC2)c2ccccc2n1CC(O)c1cccc(Br)c1 (configuration not stated),,"31.6 µM [rising, single point]"
CCOC(=O)c1cnc2ccc(OCC)cc2c1N1CCN(c2ccccc2OC)CC1,"35.5 µM [falling, single point]","31.6 µM [falling, single point]"
COC(=O)c1ccc(COc2cc(O)c3c(c2)OC(C)(C)CC3=O)cc1,,"0.398 µM [falling, full curve, poor fit]"
CN(C)CC/C=C1\c2ccccc2COc2ccc(CC(=O)O)cc21,"0.00251 µM [falling, full curve, poor fit]",
S=C(NCc1ccc(Cl)cc1)NN1CCOCC1,"0.00501 µM [falling, full curve, poor fit]","5.62 µM [falling, single point]"
c1ccc(C2CN3CCSC3=N2)cc1 (configuration not stated),"35.5 µM [falling, single point] and 28.2 nM [falling, full curve, poor fit]","2.51 µM [falling, full curve]"
COc1ccc(/C=N/Nc2nnc(Cc3ccc(OC)c(OC)c3)c(=O)[nH]2)cc1,,"22.4 µM [rising, partial curve, poor fit]"
Cc1c(Cl)cccc1NC(=S)N1CCc2ccccc2C1,"0.00447 µM [falling, full curve, poor fit]","0.00447 µM [falling, full curve, poor fit]"
O=C(CCCCn1c(=O)[nH]c2ccsc2c1=O)NCCc1ccccc1,"0.002 µM [rising, full curve, poor fit]",
